Experimental data: PubChem BioAssay AID1259405 (NCATS, 2018)
The deposit covers about 50,000 reagents; shown is a part drawn at random. About 4,000 of all reagents (8%) count as active. 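Mouse siRNA library applied to hamster cells; one well for each siRNA.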 Entries without a mark were called inactive. The numbers tell different reagents against one gene apart. Reagent sequences are not shown.

- Aim: 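Knock-downs that lift recombinant protein yield in hamster ovary cells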 (primary screen)
- Cells: Chinese hamster CHO-K1 ovary cells with stable secreted eGFP expression
- Knock-down reagent: single siRNA against mouse genes, 0.8 pmol siRNA per well (2 µl of 400 nM stock)
- Duration: 3 days
- Read-out: 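Percent of the per-plate non-targeting control median for intracellular GFP per well by laser scanning cytometry and for cell viability by ATP luminescence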
- Direction: GFP, % of control: higher = more GFP per well, higher productivity; viability (ATP), % of control: higher = more viable cells (more ATP)
- Active means: 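a knock-down is called active if GFP reaches 120% or more of non-targeting control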

Gene	reagent no.	GFP, % of control	viability (ATP), % of control
C3	1	98.5	75.3
C3	2	70.5	66.1
C3	3	69.9	70.6
Krtap9-1	1	54	56.5
Krtap9-1	2	61.1	63.4
Krtap9-1	3	88.1	61.7
Abcc9	1	150 (active)	69.9
Abcc9	2	76.4	64.8
Abcc9	3	46.6	65.6
Man2b2	1	75.4	63.5
Man2b2	2	98.6	82.4
Man2b2	3	75.2	66.6
Tpgs2	1	107	66.2
Tpgs2	2	74.3	76.3
Tpgs2	3	71.7	80.5
Ggps1	1	99.2	92
Ggps1	2	45.3	83.5
Ggps1	3	19.4	29.1
Mlxipl	1	98.8	128
Mlxipl	2	61.3	79.5
Mlxipl	3	81.2	85.4
Sytl3	1	42.2	41.2
Sytl3	2	77.8	76.8
Sytl3	3	58.9	73
Ptpn1	1	98.9	68.5
Ptpn1	2	108	72.5
Ptpn1	3	74.6	72.5
Tbx22	1	77.2	84
Tbx22	2	83	66.3
Tbx22	3	107	102
Padi1	1	51.5	68
Padi1	2	92.3	85
Padi1	3	80.1	116
Rps18	1	48	39.9
Rps18	2	153 (active)	75.6
Rps18	3	92.7	55.1
Slco3a1	1	55.8	48.8
Slco3a1	2	88.6	73.9
Slco3a1	3	59.4	67.8
2610528J11Rik	1	52.8	75.6
2610528J11Rik	2	49.3	73.3
2610528J11Rik	3	95.5	90.6
Cfp	1	67.2	52.4
Cfp	2	80.7	91.9
Cfp	3	108	104
Or5b96	1	124 (active)	38.9
Or5b96	2	138 (active)	101
Or5b96	3	74.4	77
Ccdc18	1	39.5	31.6
Ccdc18	2	62.8	31.8
Ccdc18	3	43.6	72.5
Ttpa	1	71.7	84.2
Ttpa	2	87.1	94.7
Ttpa	3	56.1	94.9
BC106179	1	68	72.2
BC106179	2	55	68.6
BC106179	3	59.8	46.6
Or10j7	1	81.6	85.6
Or10j7	2	71.7	83
Or10j7	3	87.7	96.4
Acaa1b	1	104	45.2
Acaa1b	2	68.9	85.5
Acaa1b	3	52.2	54.3
Zfp93	1	54.6	62.8
Zfp93	2	77.5	90.6
Zfp93	3	78	96.8
Clip1	1	70.3	96.8
Clip1	2	76.3	85.9
Nubp2	1	153 (active)	95.7
Nubp2	2	50.5	63.3
Nubp2	3	48.6	68.8
1700088E04Rik	1	83.3	84.4
1700088E04Rik	2	29.2	35.7
1700088E04Rik	3	51.6	50.2
Sart1	1	60.9	45
Sart1	2	65.5	69.6
Sart1	3	74	74.2
Nkg7	1	43.6	43.5
Nkg7	2	114	71.2
Nkg7	3	98.1	81.8
Vps37b	1	59.6	62.5
Vps37b	2	109	102
Vps37b	3	145 (active)	147
Gsto2	1	23.5	42.8
Gsto2	2	47.9	77.6
Gsto2	3	93.4	89.4

Records listed so far with an active call:
Gene	reagent no.	GFP, % of control	viability (ATP), % of control
Abcc9	1	150 (active)	69.9
Rps18	2	153 (active)	75.6
Or5b96	1	124 (active)	38.9
Or5b96	2	138 (active)	101
Nubp2	1	153 (active)	95.7
Vps37b	3	145 (active)	147
